Test results published in article PMC12305709, “Functional investigation of the RNA helicase MOV10 with respect to its interplay with factors involved in nonsense-mediated mRNA decay” (The Journal of Biological Chemistry, 2025).
No constants are given. Whether binding was seen depends on the method and setting. In cells and extracts the contact can be indirect. Binding can be weak; no strength is given. Where a sequence is shown, tags or fusion partners need not be part of it.

Columns and labels:
[1] = target: T1, Flag-tagged full-length UPF1 (human) (UniProt Q92900); assay: co-IP; as a2, but cell lysates treated with RNase A (60 ug/uL, 10 min, 25 C); SDS-PAGE, Coomassie, densitometry of the UPF2 band; both purified
T1 sequence: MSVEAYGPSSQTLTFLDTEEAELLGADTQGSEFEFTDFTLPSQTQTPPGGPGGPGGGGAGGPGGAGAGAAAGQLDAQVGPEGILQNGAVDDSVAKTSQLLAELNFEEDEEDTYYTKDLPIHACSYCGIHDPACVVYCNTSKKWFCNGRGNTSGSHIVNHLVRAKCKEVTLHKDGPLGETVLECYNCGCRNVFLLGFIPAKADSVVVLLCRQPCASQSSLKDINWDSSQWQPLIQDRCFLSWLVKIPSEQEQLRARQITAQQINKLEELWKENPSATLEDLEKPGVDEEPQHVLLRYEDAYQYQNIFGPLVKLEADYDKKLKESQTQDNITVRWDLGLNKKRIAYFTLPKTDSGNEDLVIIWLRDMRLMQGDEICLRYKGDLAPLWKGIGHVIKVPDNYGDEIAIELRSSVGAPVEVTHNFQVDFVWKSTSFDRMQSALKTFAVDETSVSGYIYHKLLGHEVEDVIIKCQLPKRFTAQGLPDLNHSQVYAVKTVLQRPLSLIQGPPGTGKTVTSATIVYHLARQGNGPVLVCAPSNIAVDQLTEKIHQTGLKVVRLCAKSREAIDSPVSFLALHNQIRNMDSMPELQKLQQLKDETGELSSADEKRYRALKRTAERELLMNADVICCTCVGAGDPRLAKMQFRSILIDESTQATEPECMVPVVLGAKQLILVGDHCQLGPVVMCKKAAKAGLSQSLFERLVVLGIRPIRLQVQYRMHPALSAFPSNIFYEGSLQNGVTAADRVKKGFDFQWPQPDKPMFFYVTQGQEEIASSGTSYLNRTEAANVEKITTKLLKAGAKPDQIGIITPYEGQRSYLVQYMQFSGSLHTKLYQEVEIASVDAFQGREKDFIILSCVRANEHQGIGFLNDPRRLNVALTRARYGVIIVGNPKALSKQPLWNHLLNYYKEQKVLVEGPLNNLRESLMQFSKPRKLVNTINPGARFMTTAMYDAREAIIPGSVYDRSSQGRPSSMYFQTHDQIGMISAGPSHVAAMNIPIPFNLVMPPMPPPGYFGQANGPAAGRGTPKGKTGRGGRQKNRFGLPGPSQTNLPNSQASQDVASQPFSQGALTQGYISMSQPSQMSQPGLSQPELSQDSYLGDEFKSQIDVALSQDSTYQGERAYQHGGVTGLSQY

[2] = target: T1, Flag-tagged full-length UPF1 (human); assay: co-IP; Flag-tagged bait immunopurified from HEK293 lysate on anti-Flag M2 agarose, 4-8 ug purified prey added for 45 min; washed with 20 mM Hepes pH 7.5, 70 mM NaCl, 10% glycerol, 1 mM MgCl2, 1 uM ZnCl2; SDS-PAGE, Coomassie; without RNase A; both purified

binding [1]: binds | binding [2]: binds
Substance: UPF3 (human)
